{"source": "PubChem BioAssay AID540276", "about": "(National Center for Advancing Translational Sciences (NCATS), 2011)", "note": "Out of some 300,000 compounds screened, about 5,400 (1.8%) were called active. This list was built around the results that the source calls inconclusive (neither active nor inactive); the mix of calls is not that of the screen. The call rests on the fitted dose curve; tested in HEK293 cells. Potencies beside an inconclusive call are fits to weak or partial responses and may not hold up. On the % scale 0 is the no-effect control and ±100 the full control effect; potency means the concentration at half of the fitted maximal effect.", "data": [{"test": "qHTS for inhibitors of binding or entry into cells for Marburg Virus", "settings": "Marburg virus pseudotyped entry inhibition, cell reporter; activity change, negative = inhibition: at 37.8 µM (top of the series) unless noted", "values": [{"smiles": "O=C(CSc1nnc(-c2ccc(Cl)cc2)n1Cc1ccco1)c1cccs1", "Potency": "inconclusive: 25.9 µM [inhibitor, single point]"}, {"smiles": "COc1ccc(OC)c(NC(=O)Cc2nn(C)c(=O)c3ccccc23)c1", "Potency": "inconclusive: 35.5 µM [inhibitor, single point]"}, {"smiles": "O=C1OCCC1Sc1nc2ccccc2n1-c1ccccc1", "note": "(configuration not stated)", "activity change, negative = inhibition": "inactive: -15.6% [at 46.1 µM]"}, {"smiles": "Fc1ccccc1Nc1n[nH]c(=S)s1", "activity change, negative = inhibition": "inactive: -21.2% [at 46.1 µM]"}, {"smiles": "O=C(Nc1cccc([N+](=O)[O-])c1)N1CCN(c2ccccc2)CC1", "activity change, negative = inhibition": "inactive: -7.47% [at 46.1 µM]"}, {"smiles": "N[C@H](Cc1cc(I)c(Oc2cc(I)c(O)c(I)c2)c(I)c1)C(=O)O", "Potency": "inconclusive: 22.3 µM [inhibitor, single point]"}, {"smiles": "O=C1C(=Cc2ccco2)C(=O)c2ccccc21", "Potency": "inconclusive: 23.1 µM [activator, partial curve, poor fit]"}, {"smiles": "CS(=O)(=O)c1ccc(Cl)c(NC(=O)CSc2n[nH]c(N)n2)c1", "activity change, negative = inhibition": "inactive: -1.53%"}, {"smiles": "O=C(Nc1ccc(F)cc1F)c1cc2nc3c(c(C(F)(F)F)n2n1)CCCC3", "Potency": "inconclusive: 6.31 µM [activator, single point]"}, {"smiles": "Cc1nc2nc(CNC(=O)c3cccc(F)c3)nn2c(C)c1CCC(=O)Nc1ccc(F)cc1", "Potency": "inconclusive: 35.5 µM [activator, single point]"}, {"smiles": "Cc1cc(C)c(-c2csc(NC(=O)C3=COCCO3)n2)cc1C", "Potency": "inconclusive: 6.31 µM [activator, single point]"}, {"smiles": "O=C(CCCn1cnc([N+](=O)[O-])n1)Nc1ccc(Cl)c(Cl)c1", "Potency": "inconclusive: 1.46 µM [inhibitor, single point]"}, {"smiles": "Cc1ccc(CN2CCC(C(=O)Nc3ccc(Oc4cccnc4)cc3)CC2)cc1", "Potency": "inconclusive: 17.8 µM [inhibitor, single point]"}, {"smiles": "Cc1nn(C)cc1C1Nc2ccccc2C(=O)N1O", "note": "(configuration not stated)", "activity change, negative = inhibition": "inactive: 3.89%"}, {"smiles": "Cc1nc(SCC(=O)Nc2cccc(Cl)c2)n[nH]1", "activity change, negative = inhibition": "inactive: 12.9%"}, {"smiles": "CCOc1ccc(-c2nc(-c3ccncc3)no2)cc1OCC", "activity change, negative = inhibition": "inactive: 7.66%"}, {"smiles": "Cc1cccc(NC(=O)C(C)N2C(=O)c3ccccc3S2(=O)=O)n1", "note": "(configuration not stated)", "Potency": "inconclusive: 3.16 µM [activator, single point]"}, {"smiles": "CCOc1ccc(CCNC(=O)Cn2cccc2C(=O)c2ccccc2)cc1OCC", "Potency": "inconclusive: 1.26 µM [inhibitor, partial curve, poor fit]"}, {"smiles": "CC(=O)OCc1nc2ccccc2s1", "Potency": "inconclusive: 9.2 µM [activator, partial curve, poor fit]"}, {"smiles": "Nc1nnc(Cc2ccccc2F)s1", "activity change, negative = inhibition": "inactive: 8.66% [at 46.1 µM]"}, {"smiles": "CCOC(=O)c1ccoc1CN1CCN(S(=O)(=O)c2ccc(C)c(C)c2)CC1", "activity change, negative = inhibition": "inactive: -23%"}, {"smiles": "CC(C)(C)C1CCC(=NNC(=O)CN(c2ccccc2)S(C)(=O)=O)CC1", "note": "(configuration not stated)", "activity change, negative = inhibition": "inactive: 4.8%"}, {"smiles": "O=C(C/C(=N\\NC(=O)c1ccccc1Br)C(F)(F)F)c1cccs1", "Potency": "inconclusive: 16.4 µM [inhibitor, single point]"}, {"smiles": "Cc1nnc(SCc2c(Cl)cccc2Cl)n(N)c1=O", "activity change, negative = inhibition": "inactive: -0.123% [at 46.1 µM]"}, {"smiles": "CCN1CCCC1CN(Cc1cc2ccc(C)cc2[nH]c1=O)C(=S)Nc1ccccc1OC", "note": "(configuration not stated)", "Potency": "inconclusive: 35.5 µM [inhibitor, single point]"}, {"smiles": "COc1ccc(S(=O)(=O)Nc2ccc3cn[nH]c3c2)cc1C", "Potency": "inconclusive: 0.562 µM [inhibitor, full curve, poor fit]"}, {"smiles": "CCc1ccccc1N1CC(c2nc3ccccc3n2CCCCOc2ccccc2OC)CC1=O", "note": "(configuration not stated)", "Potency": "inconclusive: 35.5 µM [inhibitor, single point]"}, {"smiles": "CCOC(=O)c1ccc(-n2c(N)c(C(=O)NCC3CCCO3)sc2=S)cc1", "note": "(configuration not stated)", "activity change, negative = inhibition": "inactive: -1.31%"}, {"smiles": "c1ccc(-c2nc(-c3cccs3)c(NC3CCCCC3)o2)cc1", "Potency": "inactive"}, {"smiles": "CCCCOC(=O)/C=C/c1ccc(OC(=O)OC)c(OC(=O)OC)c1", "Potency": "active: 11.2 µM"}, {"smiles": "Cc1cccc(N(CC(O)Cn2c3ccccc3c3ccccc32)S(=O)(=O)c2ccc(F)cc2)c1", "note": "(configuration not stated)", "Potency": "inconclusive: 25.1 µM [inhibitor, single point]"}, {"smiles": "Cc1cccc(C)c1OCC(O)CN1CCN(c2ccccn2)CC1", "note": "(configuration not stated)", "Potency": "inconclusive: 0.631 µM [inhibitor, single point]"}, {"smiles": "COc1ccc2oc(C(=O)NCC(Cc3ccccc3)N(C)C)c(C)c2c1", "note": "(configuration not stated)", "Potency": "inconclusive: 12.6 µM [inhibitor, partial curve, poor fit]"}, {"smiles": "O=C(NCCCCCNC(=O)c1cccnc1)c1cccnc1", "activity change, negative = inhibition": "inactive: -2.03%"}, {"smiles": "O=C1CCCN1CCCNC(=S)Nc1cccc2ccccc12", "activity change, negative = inhibition": "inactive: -7.24% [at 46.1 µM]"}, {"smiles": "Cc1ccc(C)n1CCN1CCN(C(=O)CSc2nc3ccccc3nc2N2CCOCC2)CC1", "Potency": "inactive"}, {"smiles": "COc1ccc(CCNC(=O)c2ccc(Nc3nc4ccccc4n4nnnc34)cc2)cc1OC", "Potency": "inconclusive: 0.631 µM [inhibitor, full curve, poor fit]"}, {"smiles": "Nc1nc(Nc2ccccc2)nc2c1ncn2[C@@H]1O[C@@H](CO)[C@H](O)[C@H]1O", "activity change, negative = inhibition": "inactive: 11%"}, {"smiles": "S=C(NCC1CCCO1)Nc1ccc(Cl)cc1", "note": "(configuration not stated)", "Potency": "inconclusive: 6.31 µM [activator, partial curve, poor fit]"}, {"smiles": "CC(=O)Nc1ccc(-c2csc(NC(=O)CCCc3cccs3)n2)cc1", "Potency": "inconclusive: 29.1 µM [inhibitor, single point]"}, {"smiles": "Cc1ccc2c(c1)C(=C(C#N)C#N)C(=O)N2CCN1CCCCC1", "Potency": "inconclusive: 35.5 µM [inhibitor, single point]"}, {"smiles": "COc1cccc(-c2nc(-c3ccc4c(c3)-c3ccccc3S4(=O)=O)c(-c3ccccc3)[nH]2)c1OC", "Potency": "inconclusive: 15.8 µM [inhibitor, partial curve, poor fit]"}, {"smiles": "CC(=O)N1CCSc2ccc(S(=O)(=O)Nc3ccc(C)cc3)cc21", "activity change, negative = inhibition": "inactive: -20.1% [at 46.1 µM]"}, {"smiles": "COc1ccc(OCc2nnc(SC3CCOC3=O)n2-c2ccccc2)cc1", "note": "(configuration not stated)", "activity change, negative = inhibition": "inactive: -1.01%"}, {"smiles": "CN(CCCNC(=O)c1cc2c(Cl)nc3ccccc3c2s1)Cc1ccccc1", "Potency": "active: 10 µM"}, {"smiles": "Oc1c(N=NC(=S)Nc2ccccc2F)c2ccccc2n1Cc1cccc(Cl)c1", "Potency": "inconclusive: 10 µM [inhibitor, partial curve, poor fit]"}, {"smiles": "CN(C)c1ccc(N=Nc2ccc3ncccc3c2)cc1", "Potency": "inconclusive: 7.08 µM [inhibitor, partial curve, poor fit]"}]}]}
